The list shows a part of the results.
Legend:
Test in all cases: log2 fold change, soluble protein after heating vs DMSO (PISA); higher = thermal stabilisation; K562 lysate, 10 uM; active = over 0.2 and 3.5 SD of the protein, either way, in both replicates (recomputed)
nilotinib = compound: Cc1cn(-c2cc(NC(=O)c3ccc(C)c(Nc4nccc(-c5cccnc5)n4)c3)cc(C(F)(F)F)c2)cn1 [nilotinib]
In short: (§1)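 Quantification was by TMTpro 16plex LC-MS/MS with equalised channel sums, applied to the supernatant after 21,000xg for 90 min. Samples were crude K562 extract at 1 mg/mL protein in PBS pH 7.4 with 1 mM MgCl2, treated with 10 μM compound for 30 min, heated for 3 min across 48°C-58°C, pooled and brought to 0.5% NP-40 at 4°C. Values are log-two fold changes in thermal stability relative to solvent controls, from duplicates.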

The chains behind the UniProt entries cited, without tags or fusion partners. Where a name states a change or a piece, a line headed by the entry shows the natural chain unless it says otherwise.
UniProt Q9BWG6: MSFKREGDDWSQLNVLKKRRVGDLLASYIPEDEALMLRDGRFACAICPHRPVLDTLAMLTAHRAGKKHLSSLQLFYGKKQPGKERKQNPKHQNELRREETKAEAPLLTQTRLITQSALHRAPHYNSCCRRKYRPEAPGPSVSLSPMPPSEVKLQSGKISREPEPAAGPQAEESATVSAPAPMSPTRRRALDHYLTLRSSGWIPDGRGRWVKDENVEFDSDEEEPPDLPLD
UniProt Q6P3W7: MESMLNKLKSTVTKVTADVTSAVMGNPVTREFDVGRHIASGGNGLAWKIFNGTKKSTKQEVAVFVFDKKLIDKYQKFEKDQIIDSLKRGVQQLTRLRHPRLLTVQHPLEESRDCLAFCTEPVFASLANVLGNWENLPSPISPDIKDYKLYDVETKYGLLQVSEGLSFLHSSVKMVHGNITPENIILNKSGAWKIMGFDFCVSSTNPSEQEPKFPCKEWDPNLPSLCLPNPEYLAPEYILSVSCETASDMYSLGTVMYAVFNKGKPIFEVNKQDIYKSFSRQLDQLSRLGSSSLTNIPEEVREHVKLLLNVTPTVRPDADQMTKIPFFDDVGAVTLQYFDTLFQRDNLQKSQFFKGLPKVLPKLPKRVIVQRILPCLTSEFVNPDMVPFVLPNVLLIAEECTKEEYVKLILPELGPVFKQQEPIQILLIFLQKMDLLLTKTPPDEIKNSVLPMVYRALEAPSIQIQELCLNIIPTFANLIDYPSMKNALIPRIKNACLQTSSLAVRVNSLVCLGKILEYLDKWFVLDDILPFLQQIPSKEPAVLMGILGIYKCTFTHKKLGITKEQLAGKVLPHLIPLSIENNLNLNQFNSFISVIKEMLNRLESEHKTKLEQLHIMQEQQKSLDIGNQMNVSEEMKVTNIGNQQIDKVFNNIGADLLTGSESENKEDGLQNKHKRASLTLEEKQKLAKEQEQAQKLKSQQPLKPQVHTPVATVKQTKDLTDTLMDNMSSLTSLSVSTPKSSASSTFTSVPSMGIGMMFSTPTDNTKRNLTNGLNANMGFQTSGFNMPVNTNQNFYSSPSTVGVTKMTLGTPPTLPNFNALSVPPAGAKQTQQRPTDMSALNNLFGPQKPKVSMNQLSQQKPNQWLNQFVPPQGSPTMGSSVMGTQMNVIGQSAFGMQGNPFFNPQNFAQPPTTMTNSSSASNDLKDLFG
UniProt Q99442: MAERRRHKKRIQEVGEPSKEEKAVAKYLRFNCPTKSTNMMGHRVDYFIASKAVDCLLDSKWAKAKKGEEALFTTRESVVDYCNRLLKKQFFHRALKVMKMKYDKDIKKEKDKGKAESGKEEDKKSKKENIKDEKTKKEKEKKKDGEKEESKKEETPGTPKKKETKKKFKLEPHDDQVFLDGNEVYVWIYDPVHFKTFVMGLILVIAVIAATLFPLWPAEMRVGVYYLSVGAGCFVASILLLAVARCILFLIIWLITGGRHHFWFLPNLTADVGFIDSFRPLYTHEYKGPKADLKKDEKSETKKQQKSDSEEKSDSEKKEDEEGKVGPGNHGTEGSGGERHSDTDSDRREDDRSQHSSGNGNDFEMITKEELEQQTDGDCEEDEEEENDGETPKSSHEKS
UniProt Q9BQF6: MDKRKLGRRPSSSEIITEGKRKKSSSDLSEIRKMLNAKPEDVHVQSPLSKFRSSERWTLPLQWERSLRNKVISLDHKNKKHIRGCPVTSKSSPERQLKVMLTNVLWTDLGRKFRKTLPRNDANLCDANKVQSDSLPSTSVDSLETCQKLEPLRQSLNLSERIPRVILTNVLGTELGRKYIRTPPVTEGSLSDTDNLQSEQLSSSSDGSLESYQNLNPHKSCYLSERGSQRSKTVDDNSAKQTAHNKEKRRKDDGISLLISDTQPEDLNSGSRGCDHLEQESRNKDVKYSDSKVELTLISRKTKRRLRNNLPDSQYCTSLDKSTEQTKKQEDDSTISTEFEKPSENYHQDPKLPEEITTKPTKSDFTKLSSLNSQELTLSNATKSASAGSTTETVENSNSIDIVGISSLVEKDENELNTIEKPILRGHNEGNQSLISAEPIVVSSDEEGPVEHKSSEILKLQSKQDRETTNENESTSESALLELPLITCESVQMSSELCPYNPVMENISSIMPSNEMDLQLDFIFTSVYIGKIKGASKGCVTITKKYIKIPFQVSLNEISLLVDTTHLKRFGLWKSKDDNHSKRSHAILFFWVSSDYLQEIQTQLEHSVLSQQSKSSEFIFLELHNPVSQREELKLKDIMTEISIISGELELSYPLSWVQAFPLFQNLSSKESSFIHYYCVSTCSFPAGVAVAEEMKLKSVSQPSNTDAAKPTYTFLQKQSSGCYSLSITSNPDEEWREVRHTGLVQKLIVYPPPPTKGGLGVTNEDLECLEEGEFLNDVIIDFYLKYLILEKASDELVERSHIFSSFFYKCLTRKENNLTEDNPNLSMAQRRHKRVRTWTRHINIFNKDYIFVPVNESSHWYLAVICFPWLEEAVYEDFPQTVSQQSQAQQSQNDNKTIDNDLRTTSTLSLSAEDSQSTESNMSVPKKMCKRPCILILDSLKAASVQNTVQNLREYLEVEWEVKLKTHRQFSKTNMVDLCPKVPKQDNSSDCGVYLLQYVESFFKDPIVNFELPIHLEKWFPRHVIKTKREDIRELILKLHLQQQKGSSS
UniProt P31040: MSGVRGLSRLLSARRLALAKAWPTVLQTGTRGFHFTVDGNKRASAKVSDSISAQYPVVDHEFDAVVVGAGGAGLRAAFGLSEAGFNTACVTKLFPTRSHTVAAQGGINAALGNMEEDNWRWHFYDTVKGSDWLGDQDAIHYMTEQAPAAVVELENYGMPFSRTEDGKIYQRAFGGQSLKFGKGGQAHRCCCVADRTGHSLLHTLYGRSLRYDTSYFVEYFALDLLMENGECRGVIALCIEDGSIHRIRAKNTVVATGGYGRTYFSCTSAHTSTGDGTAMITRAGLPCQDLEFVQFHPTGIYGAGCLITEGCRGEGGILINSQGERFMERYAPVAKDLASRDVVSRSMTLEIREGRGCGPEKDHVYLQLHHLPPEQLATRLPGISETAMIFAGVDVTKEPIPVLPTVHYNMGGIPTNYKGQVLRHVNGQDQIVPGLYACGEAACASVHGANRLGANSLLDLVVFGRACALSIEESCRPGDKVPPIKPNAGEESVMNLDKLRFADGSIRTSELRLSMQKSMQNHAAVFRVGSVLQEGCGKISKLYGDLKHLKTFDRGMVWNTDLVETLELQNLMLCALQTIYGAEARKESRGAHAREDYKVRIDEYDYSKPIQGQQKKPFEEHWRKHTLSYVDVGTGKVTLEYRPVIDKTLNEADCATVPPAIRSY
UniProt O14828: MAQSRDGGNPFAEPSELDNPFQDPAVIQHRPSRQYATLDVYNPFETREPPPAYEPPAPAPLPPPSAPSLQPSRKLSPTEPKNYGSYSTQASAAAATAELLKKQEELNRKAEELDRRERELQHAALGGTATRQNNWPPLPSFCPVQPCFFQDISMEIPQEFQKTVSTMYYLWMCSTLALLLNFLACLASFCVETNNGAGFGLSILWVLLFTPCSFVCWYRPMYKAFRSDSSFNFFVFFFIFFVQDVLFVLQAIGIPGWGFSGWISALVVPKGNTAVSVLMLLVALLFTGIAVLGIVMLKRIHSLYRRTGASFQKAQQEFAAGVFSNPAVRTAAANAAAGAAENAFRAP
UniProt P67812: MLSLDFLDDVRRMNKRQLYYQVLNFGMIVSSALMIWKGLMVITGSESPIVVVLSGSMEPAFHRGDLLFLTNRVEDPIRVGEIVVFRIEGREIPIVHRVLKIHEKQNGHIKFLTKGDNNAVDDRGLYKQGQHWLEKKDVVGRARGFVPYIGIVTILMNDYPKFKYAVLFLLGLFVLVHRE
UniProt Q9H9S3, whole entry, looked up: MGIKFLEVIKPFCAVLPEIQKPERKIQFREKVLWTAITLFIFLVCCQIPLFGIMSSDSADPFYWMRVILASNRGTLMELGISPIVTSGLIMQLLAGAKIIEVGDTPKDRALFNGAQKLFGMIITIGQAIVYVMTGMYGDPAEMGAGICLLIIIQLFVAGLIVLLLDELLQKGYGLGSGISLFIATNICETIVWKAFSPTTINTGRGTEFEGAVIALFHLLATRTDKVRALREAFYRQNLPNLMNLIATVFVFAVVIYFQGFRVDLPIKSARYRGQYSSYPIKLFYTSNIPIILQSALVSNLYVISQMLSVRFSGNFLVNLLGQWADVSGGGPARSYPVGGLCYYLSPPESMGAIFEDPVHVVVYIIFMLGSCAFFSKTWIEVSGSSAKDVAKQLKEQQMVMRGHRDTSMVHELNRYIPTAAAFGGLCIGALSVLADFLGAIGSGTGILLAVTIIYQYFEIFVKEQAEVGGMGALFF
UniProt Q9NTJ5: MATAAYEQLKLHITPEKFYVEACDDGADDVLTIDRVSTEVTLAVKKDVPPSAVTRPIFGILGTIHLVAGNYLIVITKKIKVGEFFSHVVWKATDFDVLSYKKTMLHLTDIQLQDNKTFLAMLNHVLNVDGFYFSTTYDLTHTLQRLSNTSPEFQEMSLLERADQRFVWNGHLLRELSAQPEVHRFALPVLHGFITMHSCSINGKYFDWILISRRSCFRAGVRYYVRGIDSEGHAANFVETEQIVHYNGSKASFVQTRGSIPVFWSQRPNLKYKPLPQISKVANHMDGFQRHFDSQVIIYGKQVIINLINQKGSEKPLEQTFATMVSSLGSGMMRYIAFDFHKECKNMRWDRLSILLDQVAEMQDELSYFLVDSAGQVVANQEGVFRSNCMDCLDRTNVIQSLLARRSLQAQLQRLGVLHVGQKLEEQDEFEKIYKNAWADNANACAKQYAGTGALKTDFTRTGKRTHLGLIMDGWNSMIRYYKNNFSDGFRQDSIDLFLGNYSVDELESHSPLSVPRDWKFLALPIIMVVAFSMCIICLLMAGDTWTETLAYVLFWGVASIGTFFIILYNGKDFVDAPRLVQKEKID
UniProt Q96I15: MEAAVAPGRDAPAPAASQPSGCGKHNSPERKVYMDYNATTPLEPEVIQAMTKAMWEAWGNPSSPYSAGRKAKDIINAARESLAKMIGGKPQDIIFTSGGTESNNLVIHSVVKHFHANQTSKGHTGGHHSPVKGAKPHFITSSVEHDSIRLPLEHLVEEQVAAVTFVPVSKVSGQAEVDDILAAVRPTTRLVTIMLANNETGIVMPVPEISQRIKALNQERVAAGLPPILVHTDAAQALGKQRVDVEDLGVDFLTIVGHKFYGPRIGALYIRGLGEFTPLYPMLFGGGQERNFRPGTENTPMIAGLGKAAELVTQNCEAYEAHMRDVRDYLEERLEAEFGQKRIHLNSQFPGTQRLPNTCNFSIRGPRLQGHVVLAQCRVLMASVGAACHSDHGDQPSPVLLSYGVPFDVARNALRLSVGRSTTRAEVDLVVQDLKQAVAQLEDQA
UniProt Q96HI0: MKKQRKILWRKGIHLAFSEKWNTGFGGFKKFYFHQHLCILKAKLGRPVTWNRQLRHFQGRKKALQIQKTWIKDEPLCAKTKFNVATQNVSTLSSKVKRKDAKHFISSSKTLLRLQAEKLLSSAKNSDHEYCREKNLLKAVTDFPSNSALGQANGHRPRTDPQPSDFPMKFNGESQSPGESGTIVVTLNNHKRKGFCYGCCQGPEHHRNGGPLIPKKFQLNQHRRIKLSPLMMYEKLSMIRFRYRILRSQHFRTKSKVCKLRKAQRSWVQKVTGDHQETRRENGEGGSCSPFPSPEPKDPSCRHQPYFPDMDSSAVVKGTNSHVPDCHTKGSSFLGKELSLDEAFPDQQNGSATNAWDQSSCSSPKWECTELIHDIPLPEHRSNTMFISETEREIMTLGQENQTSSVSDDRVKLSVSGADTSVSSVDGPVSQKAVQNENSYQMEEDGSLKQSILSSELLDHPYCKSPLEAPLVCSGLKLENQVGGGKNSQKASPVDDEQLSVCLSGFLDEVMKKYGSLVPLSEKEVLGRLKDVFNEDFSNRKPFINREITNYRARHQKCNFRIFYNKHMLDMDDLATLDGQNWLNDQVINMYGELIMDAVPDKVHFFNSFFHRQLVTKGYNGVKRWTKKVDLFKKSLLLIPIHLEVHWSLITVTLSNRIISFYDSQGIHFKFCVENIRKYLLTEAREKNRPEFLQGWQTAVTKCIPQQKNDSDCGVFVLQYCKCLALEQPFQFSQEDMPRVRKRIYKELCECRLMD
UniProt Q6SPF0: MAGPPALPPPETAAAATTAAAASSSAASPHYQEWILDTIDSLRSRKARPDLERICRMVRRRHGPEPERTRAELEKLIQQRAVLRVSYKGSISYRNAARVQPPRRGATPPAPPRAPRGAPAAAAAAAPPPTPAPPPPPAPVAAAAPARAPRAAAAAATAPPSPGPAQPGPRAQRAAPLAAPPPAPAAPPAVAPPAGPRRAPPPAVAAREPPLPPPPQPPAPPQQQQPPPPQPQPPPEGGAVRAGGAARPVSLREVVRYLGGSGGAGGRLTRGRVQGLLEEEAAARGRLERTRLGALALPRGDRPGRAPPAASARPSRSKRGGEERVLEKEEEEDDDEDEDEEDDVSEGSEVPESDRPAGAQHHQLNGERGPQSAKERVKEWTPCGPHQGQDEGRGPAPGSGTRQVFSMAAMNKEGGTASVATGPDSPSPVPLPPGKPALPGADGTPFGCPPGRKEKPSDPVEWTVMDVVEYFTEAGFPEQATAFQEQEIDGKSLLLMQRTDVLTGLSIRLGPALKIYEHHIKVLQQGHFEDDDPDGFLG

[1] = compound: Cc1nc(Nc2n[nH]c3c2CN(C(=O)N[C@H](CN(C)C)c2ccccc2)C3(C)C)c2sccc2n1
In short: as §1

dasatinib = compound: Cc1nc(Nc2ncc(C(=O)Nc3c(C)cccc3Cl)s2)cc(N2CCN(CCO)CC2)n1 [dasatinib]
In short: as §1

[2] = compound: Cc1ncc(-c2ccnc(Nc3ccc(S(C)(=O)=O)cc3)n2)n1C(C)C
In short: as §1

[3] = compound: Cn1cc(-c2ccc3c(c2)CCN3C(=O)Cc2cccc(C(F)(F)F)c2)c2c(N)ncnc21
In short: as §1

quisinostat = compound: Cn1cc(CNCC2CCN(c3ncc(C(=O)NO)cn3)CC2)c2ccccc21 [quisinostat]
In short: as §1

tipifarnib = compound: Cn1cncc1[C@@](N)(c1ccc(Cl)cc1)c1ccc2c(c1)c(-c1cccc(Cl)c1)cc(=O)n2C [tipifarnib]
In short: as §1

[4] = compound: NC(=O)Nc1cc(-c2cccc(F)c2)sc1C(=O)N[C@H]1CCCNC1
In short: as §1

[5] = compound: NC(=O)c1cnc(N[C@@H]2CCCC[C@@H]2N)nc1Nc1cccc(-n2nccn2)c1
In short: as §1

[6] = compound: NC1(c2ccc(-c3nc4ccn5c(=O)[nH]nc5c4cc3-c3ccccc3)cc2)CCC1
In short: as §1

Measured: log2 fold change

SASS6 (UniProt Q6UVJ0)
inactive: nilotinib -0.032 | [1] 0.01 | dasatinib -0.083 | [2] 0.017 | [3] 0.008 | quisinostat -0.045 | tipifarnib -0.03 | [4] 0.03 | [5] 0.044 | [6] 0.003

SEPTIN2 isoform 2 (UniProt Q15019)
inactive: nilotinib 0.011 | [1] -0.022 | dasatinib 0.018 | [2] -0.005 | [3] -0.002 | quisinostat -0.071 | tipifarnib 0.023 | [4] 0.013 | [5] -0.011 | [6] 0

SDHD (UniProt O14521)
inactive: nilotinib 0.022 | [1] 0.036 | dasatinib 0.005 | [2] 0.344 | [3] 0.109 | quisinostat -0.081 | tipifarnib -0.064 | [4] 0.049 | [5] -0.025 | [6] 0.035

SEC23IP (UniProt Q9Y6Y8)
inactive: nilotinib -0.025 | [1] -0.016 | dasatinib 0.027 | [2] 0.013 | [3] -0.002 | quisinostat -0.072 | tipifarnib -0.006 | [4] 0.039 | [5] 0.012 | [6] 0.03

SCNM1 (UniProt Q9BWG6)
inactive: nilotinib -0.078 | [1] -0.045 | dasatinib 0.122 | [2] -0.091 | [3] 0.015 | quisinostat -0.061 | tipifarnib 0.045 | [4] 0.06 | [5] -0.104 | [6] -0.106

SCYL2 (UniProt Q6P3W7)
inactive: nilotinib 0.014 | [1] 0.035 | dasatinib -0.023 | [2] 0.006 | [3] 0.027 | quisinostat -0.078 | tipifarnib -0.049 | [4] 0.012 | [5] -0.005 | [6] -0.002

SEC62 (UniProt Q99442)
inactive: nilotinib 0.013 | [1] -0.032 | dasatinib 0.01 | [2] -0.038 | [3] -0.011 | quisinostat 0.083 | tipifarnib -0.055 | [4] -0.045 | [5] -0.007 | [6] -0.01

SENP7 (UniProt Q9BQF6)
inactive: nilotinib 0.231 | [1] -0.142 | dasatinib -0.033 | [2] 0.052 | [3] 0.122 | quisinostat -0.103 | tipifarnib 0.13 | [4] 0.098

SCAF11 (UniProt Q99590)
inactive: nilotinib -0.067 | [1] 0.019 | dasatinib 0.003 | [2] -0.024 | [3] -0.003 | quisinostat -0.013 | tipifarnib -0.046 | [4] -0.044 | [5] 0.001 | [6] 0

SEMA7A (UniProt O75326)
inactive: nilotinib 0.042 | [1] -0.169 | dasatinib -0.016 | [2] -0.107 | [3] -0.023 | quisinostat -0.006 | tipifarnib -0.174 | [4] 0.006 | [5] 0.024 | [6] -0.233

SDHA (UniProt P31040)
inactive: nilotinib 0.035 | [1] 0.009 | dasatinib 0.016 | [2] 0.004 | [3] -0.033 | quisinostat -0.022 | tipifarnib -0.034 | [4] -0.037 | [5] -0.013 | [6] 0.007

SCAMP3 isoform 2 (UniProt O14828)
inactive: nilotinib 0.067 | [1] 0.11 | dasatinib -0.062 | [2] 0.131 | [3] 0.005 | quisinostat -0.138 | tipifarnib -0.036 | [4] 0.04 | [5] 0.003 | [6] 0.107

SAFB isoform 3 (UniProt Q15424)
inactive: nilotinib -0.005 | [1] 0.036 | dasatinib 0.026 | [2] -0.045 | [3] 0.003 | quisinostat -0.003 | tipifarnib 0.09 | [4] 0.021 | [5] -0.022 | [6] 0.013

SEC11A (UniProt P67812)
inactive: nilotinib -0.021 | [1] 0.004 | dasatinib -0.052 | [2] -0.002 | [3] -0.047 | quisinostat -0.063 | tipifarnib -0.072 | [4] 0.042 | [5] 0.011 | [6] -0.063

SEC61A2 (UniProt Q9H9S3)
inactive: nilotinib -0.012 | [1] 0.042 | dasatinib 0.009 | [2] -0.028 | [3] -0.007 | quisinostat -0.127 | tipifarnib -0.087 | [4] -0.003 | [5] 0.013 | [6] 0.06

SEC24C (UniProt P53992)
inactive: nilotinib 0.034 | [1] 0.011 | dasatinib -0.012 | [2] 0.006 | [3] -0.014 | quisinostat 0.016 | tipifarnib 0.028 | [4] 0.012 | [5] -0.008 | [6] 0.011

2 successive entries from above, quoted:
SCNM1 (UniProt Q9BWG6)
inactive: nilotinib -0.078 | [1] -0.045 | dasatinib 0.122 | [2] -0.091 | [3] 0.015 | quisinostat -0.061 | tipifarnib 0.045 | [4] 0.06 | [5] -0.104 | [6] -0.106

SCYL2 (UniProt Q6P3W7)
inactive: nilotinib 0.014 | [1] 0.035 | dasatinib -0.023 | [2] 0.006 | [3] 0.027 | quisinostat -0.078 | tipifarnib -0.049 | [4] 0.012 | [5] -0.005 | [6] -0.002

Continuation.

SACM1L (UniProt Q9NTJ5)
inactive: nilotinib -0.006 | [1] 0 | dasatinib -0.065 | [2] 0.006 | [3] 0.045 | quisinostat -0.011 | tipifarnib -0.073 | [4] 0.013 | [5] 0.024 | [6] 0.003

SCLY (UniProt Q96I15)
inactive: nilotinib -0.031 | [1] -0.004 | dasatinib 0.161 | [2] 0.012 | [3] -0.019 | quisinostat 0.04 | tipifarnib 0.033 | [4] -0.023 | [5] -0.002 | [6] -0.022

SAFB2 (UniProt Q14151)
inactive: nilotinib -0.057 | [1] 0.004 | dasatinib 0.043 | [2] -0.033 | [3] 0.049 | quisinostat -0.032 | tipifarnib -0.025 | [4] 0.01 | [5] -0.009 | [6] 0.037

SEPTIN11 isoform 2 (UniProt Q9NVA2)
inactive: nilotinib 0.007 | [1] 0.022 | dasatinib -0.004 | [2] -0.017 | [3] 0.007 | quisinostat 0.001 | tipifarnib 0.025 | [4] 0 | [5] -0.034 | [6] -0.001

SENP5 (UniProt Q96HI0)
inactive: nilotinib -0.022 | [1] -0.025 | dasatinib -0.07 | [2] -0.016 | [3] -0.122 | quisinostat -0.047 | tipifarnib 0.02 | [4] 0.085 | [5] 0.057 | [6] -0.079

SCFD1 (UniProt Q8WVM8)
inactive: nilotinib 0.007 | [1] -0.02 | dasatinib -0.023 | [2] 0.021 | [3] 0.005 | quisinostat 0.012 | tipifarnib 0.013 | [4] 0.013 | [5] 0.017 | [6] -0.016

SAP30 (UniProt O75446)
active: [1] -0.464
inactive: nilotinib 0.104 | dasatinib -0.063 | [2] -0.124 | [3] 0.012 | quisinostat -0.111 | tipifarnib -0.026 | [4] 0.037 | [5] -0.035

SECISBP2 (UniProt Q96T21)
inactive: nilotinib 0.115 | [1] 0.058 | dasatinib -0.072 | [2] -0.097 | [3] -0.028 | quisinostat -0.076 | tipifarnib -0.065 | [4] 0.218 | [5] 0.213

SAMD1 (UniProt Q6SPF0)
inactive: nilotinib 0.102 | [1] -0.021 | dasatinib 0.031 | [2] -0.022 | [3] 0.007 | quisinostat -0.037 | tipifarnib 0.068 | [4] 0.042 | [5] 0.008

SCIN (UniProt Q9Y6U3)
inactive: nilotinib 0.042 | [1] -0.002 | dasatinib -0.015 | [2] 0.029 | [3] 0.021 | quisinostat 0.015 | tipifarnib 0.032 | [4] -0.011 | [5] -0.017 | [6] 0.009

SENP8 (UniProt Q96LD8)
inactive: nilotinib -0.102 | [1] 0.365 | dasatinib -0.216 | [2] -0.084 | [3] -0.124 | quisinostat -0.024 | tipifarnib -0.375 | [4] -0.007 | [5] -0.008 | [6] -0.005

SCARB1 isoform 2 (UniProt Q8WTV0)
inactive: nilotinib 0.043 | [1] 0.003 | dasatinib 0.003 | [2] -0.02 | [3] -0.034 | quisinostat -0.057 | tipifarnib 0.004 | [4] 0.019 | [5] -0.015 | [6] -0.034
